Data as given in doi:10.1101/632331.
Results are given in words; binding and its absence hold for the method and conditions named. Binding seen in cells or lysates may run through a third protein. Some results given as binding are weak or reduced against the parent protein; the word gives no strength. Tags and fused reporters may be left off the sequences shown. Blank lines part the entries; values can stand above or below the binder they belong to.

By UniProt entry, the sequences of proteins in these tests, tags left out.
UniProt Q99814: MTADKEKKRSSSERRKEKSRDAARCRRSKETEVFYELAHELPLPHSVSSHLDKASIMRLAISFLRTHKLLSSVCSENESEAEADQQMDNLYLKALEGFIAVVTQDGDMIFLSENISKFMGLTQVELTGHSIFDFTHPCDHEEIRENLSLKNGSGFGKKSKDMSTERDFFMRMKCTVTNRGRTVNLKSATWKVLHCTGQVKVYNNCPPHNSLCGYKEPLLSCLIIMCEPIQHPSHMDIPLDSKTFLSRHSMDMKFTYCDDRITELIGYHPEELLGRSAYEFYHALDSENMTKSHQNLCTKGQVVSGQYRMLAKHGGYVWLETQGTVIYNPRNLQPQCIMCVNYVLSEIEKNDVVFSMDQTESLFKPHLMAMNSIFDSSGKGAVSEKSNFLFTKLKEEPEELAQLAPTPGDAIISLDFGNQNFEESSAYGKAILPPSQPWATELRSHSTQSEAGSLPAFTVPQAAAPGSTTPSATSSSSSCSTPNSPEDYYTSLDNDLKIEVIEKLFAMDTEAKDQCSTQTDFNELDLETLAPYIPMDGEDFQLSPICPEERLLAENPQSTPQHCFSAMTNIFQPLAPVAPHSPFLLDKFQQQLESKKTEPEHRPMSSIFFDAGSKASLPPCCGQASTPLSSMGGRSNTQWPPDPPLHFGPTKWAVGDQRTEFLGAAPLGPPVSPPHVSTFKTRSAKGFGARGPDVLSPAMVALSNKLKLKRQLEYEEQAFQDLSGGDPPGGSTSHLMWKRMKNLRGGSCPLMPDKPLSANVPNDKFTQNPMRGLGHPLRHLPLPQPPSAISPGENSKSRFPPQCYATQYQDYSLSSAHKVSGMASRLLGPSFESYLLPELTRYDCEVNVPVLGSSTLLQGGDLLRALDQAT
UniProt O60573: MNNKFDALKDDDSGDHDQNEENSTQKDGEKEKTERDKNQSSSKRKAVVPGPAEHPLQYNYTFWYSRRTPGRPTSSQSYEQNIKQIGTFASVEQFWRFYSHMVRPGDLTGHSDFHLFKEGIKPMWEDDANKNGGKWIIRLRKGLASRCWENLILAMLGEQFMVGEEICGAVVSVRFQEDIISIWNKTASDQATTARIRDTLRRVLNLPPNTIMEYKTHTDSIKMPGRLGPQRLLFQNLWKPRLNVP

How the values were obtained:
FLAG-GFP-HIF-2α = FLAG-GFP-HIF-2α (UniProt Q99814); test: co-IP
FLAG-eIF4E2 = FLAG-eIF4E2 (UniProt O60573); test: co-IP

binding (FLAG-GFP-HIF-2α): binds
B1: FLAG-DDX28 (DEAD box protein 28, C-terminal 3x FLAG) (protein, UniProt Q9NUL7 1-540)
chain: MALTRPVRLFSLVTRLLLAPRRGLTVRSPDEPLPVVRIPVALQRQLEQRQSRRRNLPRPVLVRPGPLLVSARRPELNQPARLTLGRWERAPLASQGWKSRRARRDHFSIERAQQEAPAVRKLSSKGSFADLGLEPRVLHALQEAAPEVVQPTTVQSSTIPSLLRGRHVVCAAETGSGKTLSYLLPLLQRLLGQPSLDSLPIPAPRGLVLVPSRELAQQVRAVAQPLGRSLGLLVRDLEGGHGMRRIRLQLSRQPSADVLVATPGALWKALKSRLISLEQLSFLVLDEADTLLDESFLELVDYILEKSHIAEGPADLEDPFNPKAQLVLVGATFPEGVGQLLNKVASPDAVTTITSSKLHCIMPHVKQTFLRLKGADKVAELVHILKHRDRAERTGPSGTVLVFCNSSSTVNWLGYILDDHKIQHLRLQGQMPALMRVGIFQSFQKSSRDILLCTDIASRGLDSTGVELVVNYDFPPTLQDYIHRAGRVGRVGSEVPGTVISFVTHPWDVSLVQKIELAARRRRSLPGLASSVKEPLPQAT

binding (FLAG-eIF4E2): no binding
B2: DDX28 (as probed in the FLAG-eIF4E2 co-immunoprecipitation, Fig. 1D) (protein, UniProt Q9NUL7 1-540)
chain: B1 chain
